# About 820 (0.21%) of roughly 390,000 compounds were called active. The inconclusive results got no clear call from the source; some entries with a clear call stand among them for comparison. Calls follow the shape of the dose curve; as a rule, active = well fitted inhibition curve with a large enough effect; inconclusive = small, poorly fitted or top-dose-only effect, or another doubt; inactive = no such curve, though single readings can be large or run the other way. Potencies beside an inconclusive call are fits to weak or partial responses and may not hold up.
# Sequences of proteins named here, by UniProt entry; tags and fusion partners are left off.
# UniProt Q92830, whole entry, looked up: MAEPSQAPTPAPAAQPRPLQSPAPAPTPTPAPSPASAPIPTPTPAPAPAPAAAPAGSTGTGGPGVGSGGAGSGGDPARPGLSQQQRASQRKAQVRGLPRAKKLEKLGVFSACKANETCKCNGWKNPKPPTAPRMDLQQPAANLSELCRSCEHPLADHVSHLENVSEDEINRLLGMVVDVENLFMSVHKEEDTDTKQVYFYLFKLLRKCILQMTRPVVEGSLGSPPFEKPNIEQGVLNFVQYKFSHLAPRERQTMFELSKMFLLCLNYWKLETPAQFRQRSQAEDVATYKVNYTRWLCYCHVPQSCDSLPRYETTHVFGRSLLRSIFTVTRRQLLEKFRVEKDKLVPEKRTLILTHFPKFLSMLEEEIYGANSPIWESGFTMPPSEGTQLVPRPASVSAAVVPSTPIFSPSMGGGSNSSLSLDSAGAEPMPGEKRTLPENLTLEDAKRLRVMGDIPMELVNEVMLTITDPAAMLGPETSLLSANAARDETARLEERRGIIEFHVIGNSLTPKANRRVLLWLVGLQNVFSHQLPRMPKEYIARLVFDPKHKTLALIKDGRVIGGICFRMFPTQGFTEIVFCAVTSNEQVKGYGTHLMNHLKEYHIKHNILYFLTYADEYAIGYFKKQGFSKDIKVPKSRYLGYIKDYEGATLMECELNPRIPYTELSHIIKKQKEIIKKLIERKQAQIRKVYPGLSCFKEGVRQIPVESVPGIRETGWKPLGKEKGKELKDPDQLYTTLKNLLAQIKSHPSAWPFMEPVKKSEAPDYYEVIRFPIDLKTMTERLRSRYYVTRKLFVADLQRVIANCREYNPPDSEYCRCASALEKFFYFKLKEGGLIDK
# Target: Histone acetyltransferase KAT2A (Homo sapiens) (UniProt Q92830)
# Assay: qHTS Assay for Inhibitors of GCN5L2
# Conditions: GCN5L2 HAT assay, ThioGlo1 CoA-SH fluorescence; series mostly up to 58.9 µM
# Method in brief: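 Free CoA generated was detected with ThioGlo1 (50uM) fluorescence at Ex340nm/Em540nm, read immediately and after 20 min at room temperature. Enzyme, 20 nM in HEPES pH 7.5 buffer, saw compounds 15 min before adding 75uM H3(1-25) peptide and 70uM acetyl-CoA.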
# Potency is read from the fitted curve at half-maximal effect.
row,SMILES,Potency
1,CCOC(=O)c1c(-c2ccccc2)oc2ccc(O)cc12,"inconclusive: 31.6 µM [inhibitor, single point]"
2,O=C(O)c1ccc(NC(=S)NC(=O)c2cccc(COc3ccccc3)c2)cc1,inactive
3,Cc1c(NC(=O)c2ccc(NS(=O)(=O)c3ccccc3)cc2)c(=O)n(-c2ccccc2)n1C,"inconclusive: 8.91 µM [inhibitor, single point]"
4,N#C/C(=C/c1ccc(OCc2ccc(C(=O)O)cc2)c(Br)c1)c1cccc(F)c1,"inconclusive: 31.6 µM [inhibitor, single point]"
5,COc1ccc(CCNC(=O)CCC(=O)n2ncc3ccc(Cl)cc32)cc1OC,inactive
6,COC(=O)c1cccc(NC(=O)c2cccnc2C(=O)O)c1C,"inconclusive: 3.55 µM [inhibitor, single point]"
7,CC(C)(C)NC(=O)C[C@H]1C[C@H](C(=O)N2CCOCC2)[C@@]2(C)c3[nH]c4cc(-c5ccco5)ccc4c3CCN2C1=O,inactive
8,CCNc1c(NC(=O)c2ccc3c(c2)OCO3)c(=O)oc2ccccc12,"inconclusive: 35.5 µM [inhibitor, partial curve, poor fit]"
9,CC1CN(C(=O)CCC(=O)NCCCc2ccccc2)c2ccccc2O1 (stereo not given),"inconclusive: 4.47 µM [inhibitor, single point]"
10,O=C(Cn1nc(-c2ccco2)ccc1=O)Nc1ccc(Cl)c(Cl)c1,inactive
11,CC(C)NC(=O)C1CCC(Cn2c(=O)c3sccc3n(CC(=O)NCc3ccccc3)c2=O)CC1 (stereo not given),inactive
12,CCCCC(=O)NC(c1ccc(C(C)C)cc1)c1ccc2cccnc2c1O (stereo not given),"inconclusive: 7.08 µM [inhibitor, single point]"
13,Cc1ccc(C(=O)OCC(=O)Nc2sccc2C(N)=O)cc1NC(=O)c1ccco1,inactive
14,O=C(NC1CCSc2ccccc21)c1cccc(Cl)c1 (stereo not given),"inconclusive: 10 µM [inhibitor, partial curve]"
15,COc1ccc(C(=O)Nn2c(CCC(=O)O)ccc2-c2ccc(C)cc2)cc1OC,inactive
16,COc1ccc2cc(Br)ccc2c1CC(=O)N(C)C,inactive
17,CCOC(=O)c1cccc(NC(=O)CCc2nnc3ccc(N4CCCCC4)nn23)c1,inactive
18,COc1ccc(OC)c(S(=O)(=O)CC(=O)c2cc3ccc(OC)cc3oc2=O)c1,"inconclusive: 39.8 µM [inhibitor, single point]"
19,COc1cc(NC(=O)COCc2cc(-c3ccc(F)cc3)on2)cc(OC)c1OC,inactive
20,Nc1ccc(S(=O)(=O)Nc2nccc(/C=C/c3ccc(Cl)cc3Cl)n2)cc1,"inconclusive: 39.8 µM [inhibitor, single point]"
21,CCc1ccc(NC(=O)c2cnn3c(C(F)F)cc(C)nc23)cc1,inactive
22,NC(=O)CSc1nnc2ccc(-c3ccco3)nn12,"inconclusive: 39.8 µM [inhibitor, single point]"
23,CCOc1cccc(CC(=O)N2CCc3c([nH]c4ccccc34)C2c2ccccc2)c1OCC (stereo not given),"inconclusive: 39.8 µM [inhibitor, single point]"
24,CSc1nc2ccc3nc(NC(=O)c4ccc(Cl)s4)sc3c2s1,"inconclusive: 0.631 µM [inhibitor, single point]"

row,SMILES,Potency
1,COc1ccc(N2C(C)=CS/C2=C(/C#N)c2nnc(N3CCOCC3)n2-c2ccccc2)cc1,"inconclusive: 0.501 µM [inhibitor, partial curve, poor fit]"
2,c1ccc(-c2nnc(CN3CCN(c4ccccn4)CC3)o2)cc1,inactive
3,CC(C)=CCCC1(C)C=Cc2c(O)c3c(c(CC=C(C)C)c2O1)OC12C(=CCCC1C(C)(C)O[C@@]2(C/C=C(\C)C(=O)O)C(=O)O)C3=O (stereo not given in full),active: 35.5 µM
4,Nc1nnc(SCc2cn3cc(Cl)ccc3n2)s1,inactive
5,COc1ccc(C(=O)CN2C(=O)c3ccccc3C2=O)c(OC)c1,"inconclusive: 7.94 µM [inhibitor, full curve, poor fit]"
6,Cc1ccc(-c2nc3cccnc3s2)cc1NS(=O)(=O)c1ccc2c(c1)OCCO2,"inconclusive: 31.6 µM [inhibitor, single point]"
7,COc1cc(Cl)c(C)cc1NC(=O)c1ccc2c(SCC(=O)O)c3c(nc2c1)CCCC3,"inconclusive: 35.5 µM [inhibitor, single point]"
8,COc1ccc(S(=O)(=O)N2CCN(Cc3cccnc3)CC2)cc1,"inconclusive: 0.631 µM [inhibitor, full curve]"
9,Nn1c(SCC(=O)Nc2cccnc2Cl)nnc1-c1ccccc1,"inconclusive: 31.6 µM [inhibitor, single point]"
10,Nc1nc(N)c2nc(-c3ccccc3)c(N)nc2n1,"inconclusive: 35.5 µM [inhibitor, single point]"
11,CC(C)C[C@H](NC(=O)c1nc[nH]c1C(=O)NCCCCCNC(=O)OC(C)(C)C)C(=O)OC(C)(C)C,inactive
12,COc1cccc(NC(=O)c2oc3ccccc3c2NC(=O)c2ccc3c(c2)OCO3)c1,"inconclusive: 39.8 µM [inhibitor, single point]"
13,CCCc1c(OCCCOc2ccc(OCC(=O)O)cc2)ccc(CC=O)c1O,"inconclusive: 35.5 µM [inhibitor, single point]"
14,Cn1c2ccccc2c(=O)c2cc(NCCCN3CCOCC3)ccc21,"inconclusive: 39.8 µM [inhibitor, single point]"
15,C[C@H](NC(=O)c1nc[nH]c1C(=O)N[C@@H](Cc1ccccc1)C(=O)OC(C)(C)C)C(=O)OCc1ccccc1,"inconclusive: 39.8 µM [inhibitor, single point]"
16,O=C(CC1OC(=O)c2ccccc21)Nc1cc(Cl)ccc1N1CCCC1 (stereo not given),inactive
17,C=CCn1c(NS(=O)(=O)c2ccccc2)c(S(=O)(=O)c2ccc(C)cc2)c2nc3ccccc3nc21,"inconclusive: 39.8 µM [inhibitor, single point]"
18,O=C(NCc1ccco1)c1cccc(Br)c1,"inconclusive: 31.6 µM [inhibitor, single point]"
19,O=C(CN1C(=O)/C(=C/c2ccccc2Cl)SC1=S)NC1C=CS(=O)(=O)C1 (stereo not given),"inconclusive: 39.8 µM [inhibitor, single point]"
20,COc1ccc(CCn2nnnc2C2(c3ccc(C)cc3)CC2)cc1,inactive
21,COc1cc([N+](=O)[O-])cc(/C=N/NC(=O)CSc2nnc(-c3ccccc3)n2C)c1O,"inconclusive: 3.98 µM [inhibitor, partial curve]"
22,COc1ccc(CC(=O)NCc2nc3cccnc3n2Cc2ccc(C)cc2)cc1,inactive
23,CC1=NOC(=O)/C1=C\c1ccc(-c2ccccc2Br)o1,active: 12.6 µM
24,COc1c(/C=C2\SC(=Nc3ccccc3Cl)NC2=O)cccc1[N+](=O)[O-],"inconclusive: 31.6 µM [inhibitor, single point]"

# A second format for four compounds above.
row | SMILES | Potency
6 | COC(=O)c1cccc(NC(=O)c2cccnc2C(=O)O)c1C | inconclusive: 3.55 µM [inhibitor, single point]
17 | C=CCn1c(NS(=O)(=O)c2ccccc2)c(S(=O)(=O)c2ccc(C)cc2)c2nc3ccccc3nc21 | inconclusive: 39.8 µM [inhibitor, single point]
19 | O=C(CN1C(=O)/C(=C/c2ccccc2Cl)SC1=S)NC1C=CS(=O)(=O)C1 (stereo not given) | inconclusive: 39.8 µM [inhibitor, single point]
24 | COc1c(/C=C2\SC(=Nc3ccccc3Cl)NC2=O)cccc1[N+](=O)[O-] | inconclusive: 31.6 µM [inhibitor, single point]

# Following part

row,SMILES,Potency
1,Cc1ccc(-c2ccc(=O)n(CC(=O)N3CCN(c4cccc(C)c4)C(C)C3)n2)cc1 (stereo not given),"inconclusive: 39.8 µM [inhibitor, single point]"
2,COC(=O)C1=CN(c2ccc(F)cc2)C=C(C(=O)OC)C1c1ccc(O)cc1,inactive
3,COc1ccc(N/N=C(/C#N)S(=O)(=O)C(C)(C)C)cc1,inactive
4,CCCCn1c(SCC(=O)N2CCCC2)nc2c1c(=O)n(C)c(=O)n2C,"inconclusive: 39.8 µM [inhibitor, single point]"
5,Nc1nc(NCC2CCC(CNS(=O)(=O)c3cccc4ccccc34)CC2)nc2ccccc12 (stereo not given),inactive
6,CCOC(=O)c1ccc(NC(=O)C(Cc2ccccc2)NS(=O)(=O)c2ccc(Br)s2)cc1 (stereo not given),inactive
7,N/C(Cc1ccc(Cl)c(Cl)c1)=N\OC(=O)c1cccs1,"inconclusive: 0.126 µM [inhibitor, full curve, poor fit]"
8,CCn1ncc(Br)c1C(=O)Nc1ccc(C(C)C)cc1,inactive
9,CCCOc1cccc(-c2cc(-c3n[nH]c(=S)n3CC)c3ccccc3n2)c1,"inconclusive: 6.31 µM [inhibitor, single point]"
10,O=S(=O)(c1cc(Cl)c(Cl)cc1Cl)N1CCN2CCCC2C1 (stereo not given),"inconclusive: 0.501 µM [inhibitor, single point]"
11,CN(C)c1cccc(C(=O)N(Cc2ccccc2)Cc2ccccc2)c1,"inconclusive: 39.8 µM [inhibitor, single point]"
12,O=C1/C(=C\c2ccc(O)c(O)c2)Oc2cc(O)ccc21,"inconclusive: 14.1 µM [inhibitor, partial curve]"
13,CCC(=O)O[C@H]1C(O[C@@H]2C(C)[C@H](O[C@H]3C[C@@](C)(OC)C(O)C(C)O3)C(C)C(=O)OC(CC)[C@@](C)(O)C(O)[C@H](C)C(=O)C(C)C[C@]2(C)O)OC(C)CC1N(C)C (stereo not given in full),active: 7.08 µM
14,CC1(C)CC(=O)c2cc3c(N)c(C(=O)NCc4ccccc4)sc3nc2C1,"inconclusive: 11.2 µM [inhibitor, partial curve, poor fit]"
15,COc1cccc(NC(=O)COc2coc(CN3CCc4ccccc4C3)cc2=O)c1,inactive
16,CC(C(=O)Nc1ccccc1-c1ccccc1)N1CCN(Cc2ccccc2)CC1 (stereo not given),inactive
17,CSc1ccccc1OCc1cc(C(=O)NC2CCc3ccccc32)no1 (stereo not given),inactive
18,Cc1nc(C)c(-c2csc(NCc3ccco3)n2)s1,inactive
19,CCc1ccc(OCCn2ccnc2)cc1,"inconclusive: 6.31 µM [inhibitor, single point]"
20,CC(=O)N1CC[n+]2c(-c3ccc(Cl)cc3)csc21,inactive
21,CCCCc1cc(=O)oc2c(CN(C)C)c(O)c(Cl)cc12,"inconclusive: 28.2 µM [inhibitor, single point]"
22,Cc1ccc2oc(C(=O)N(Cc3ccc(N(C)C)cc3)C3CCS(=O)(=O)C3)c(C)c2c1 (stereo not given),"inconclusive: 5.01 µM [inhibitor, full curve, poor fit]"

# Source: PubChem BioAssay AID504327 (National Center for Advancing Translational Sciences (NCATS), 2011)
